Assay results reported in the supplement of paper PMC8728848.
This is one part of the list.

Assays:
Assay in all cases: glycan array binding signal (z-score within array); higher = stronger binding
Details in all cases: glycan notation: IUPAC condensed, linker removed
[1] = biological target: Neu5Ac(a2-6)Gal(b1-4)GlcNAc(b1-6)GalNAc
Procedure, shortened: (§1)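 Glycan array binding is given as a within-array Z-score, which can be read as non-binding when negative. The arrays, 3228 of them, came from the Consortium for Functional Glycomics database and were retained only where the protein sequence was available. Z-scores were averaged across arrays of the same protein sequence at different concentrations or buffers and across linkers.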

[2] = biological target: Neu5Ac(a2-6)Gal(b1-4)GlcNAc(b1-6)[Gal(b1-3)GlcNAc(b1-3)]Gal(b1-4)Glc
Procedure, shortened: as §1

[3] = biological target: Neu5Ac(a2-6)Gal(b1-4)GlcNAc(b1-6)[Gal(b1-3)]GalNAc
Procedure, shortened: as §1

[4] = biological target: Neu5Ac(a2-6)Gal(b1-4)GlcNAc6S
Procedure, shortened: as §1

Neu5Ac(a2-6)GalNAc = biological target: Neu5Ac(a2-6)GalNAc
Procedure, shortened: as §1

[5] = biological target: Neu5Ac(a2-6)GalNAc(b1-4)GlcNAc
Procedure, shortened: as §1

[6] = biological target: Neu5Ac(a2-6)GalNAc(b1-4)GlcNAc6S
Procedure, shortened: as §1

[7] = biological target: Neu5Ac(a2-6)GlcNAc(b1-4)GlcNAc
Procedure, shortened: as §1

[8] = biological target: Neu5Ac(a2-6)GlcNAc(b1-4)GlcNAc(b1-4)GlcNAc
Procedure, shortened: as §1

Neu5Ac(a2-8)Neu5Ac = biological target: Neu5Ac(a2-8)Neu5Ac
Procedure, shortened: as §1

[9] = biological target: Neu5Ac(a2-8)Neu5Ac(a2-3)Gal(b1-3)GalNAc(b1-4)[Neu5Ac(a2-3)]Gal(b1-4)Glc
Procedure, shortened: as §1

[10] = biological target: Neu5Ac(a2-8)Neu5Ac(a2-3)Gal(b1-3)GalNAc(b1-4)[Neu5Ac(a2-8)Neu5Ac(a2-3)]Gal(b1-4)Glc
Procedure, shortened: as §1

[11] = biological target: Neu5Ac(a2-8)Neu5Ac(a2-3)Gal(b1-4)Glc
Procedure, shortened: as §1

[12] = biological target: Neu5Ac(a2-8)Neu5Ac(a2-3)Gal(b1-4)GlcNAc
Procedure, shortened: as §1

[13] = biological target: Neu5Ac(a2-8)Neu5Ac(a2-3)[Gal(b1-3)GalNAc(b1-4)]Gal(b1-4)Glc
Procedure, shortened: as §1

[14] = biological target: Neu5Ac(a2-8)Neu5Ac(a2-3)[GalNAc(b1-4)]Gal(b1-4)Glc
Procedure, shortened: as §1

[15] = biological target: Neu5Ac(a2-8)Neu5Ac(a2-8)Neu5Ac
Procedure, shortened: as §1

[16] = biological target: Neu5Ac(a2-8)Neu5Ac(a2-8)Neu5Ac(a2-3)Gal(b1-4)Glc
Procedure, shortened: as §1

[17] = biological target: Neu5Ac(a2-8)Neu5Ac(a2-8)Neu5Ac(a2-3)[Gal(b1-3)GalNAc(b1-4)]Gal(b1-4)Glc
Procedure, shortened: as §1

[18] = biological target: Neu5Ac(a2-8)Neu5Ac(a2-8)Neu5Ac(a2-3)[GalNAc(b1-4)]Gal(b1-4)Glc
Procedure, shortened: as §1

[19] = biological target: Neu5Ac(a2-8)Neu5Ac(a2-8)Neu5Ac(a2-8)Neu5Ac(a2-3)[GalNAc(b1-4)]Gal(b1-4)Glc
Procedure, shortened: as §1

[20] = biological target: Neu5Ac(a2-8)Neu5Gc(a2-3)Gal(b1-4)GlcNAc
Procedure, shortened: as §1

[21] = biological target: Neu5Ac(b2-6)Gal(b1-4)GlcNAc
Procedure, shortened: as §1

Neu5Ac(b2-6)GalNAc = biological target: Neu5Ac(b2-6)GalNAc
Procedure, shortened: as §1

[22] = biological target: Neu5Ac9Ac(a2-3)Gal(b1-3)GlcNAc
Procedure, shortened: as §1

[23] = biological target: Neu5Ac9Ac(a2-3)Gal(b1-4)GlcNAc
Procedure, shortened: as §1

[24] = biological target: Neu5Ac9Ac(a2-6)Gal(b1-4)GlcNAc
Procedure, shortened: as §1

[25] = biological target: Neu5Gc(a2-3)Gal(b1-3)GlcNAc
Procedure, shortened: as §1

[26] = biological target: Neu5Gc(a2-3)Gal(b1-3)[Fuc(a1-4)]GlcNAc
Procedure, shortened: as §1

Neu5Gc(a2-3)Gal(b1-4)Glc = biological target: Neu5Gc(a2-3)Gal(b1-4)Glc
Procedure, shortened: as §1

[27] = biological target: Neu5Gc(a2-3)Gal(b1-4)GlcNAc
Procedure, shortened: as §1

[28] = biological target: Neu5Gc(a2-3)Gal(b1-4)GlcNAc(b1-3)Gal(b1-4)GlcNAc(b1-2)Man(a1-3)[Neu5Gc(a2-3)Gal(b1-4)GlcNAc(b1-3)Gal(b1-4)GlcNAc(b1-2)Man(a1-6)]Man(b1-4)GlcNAc(b1-4)GlcNAc
Procedure, shortened: as §1

[29] = biological target: Neu5Gc(a2-3)Gal(b1-4)[Fuc(a1-3)]GlcNAc
Procedure, shortened: as §1

[30] = biological target: Neu5Gc(a2-6)Gal(b1-4)GlcNAc
Procedure, shortened: as §1

Neu5Gc(a2-6)GalNAc = biological target: Neu5Gc(a2-6)GalNAc
Procedure, shortened: as §1

[31] = biological target: Neu5Gc(a2-8)Neu5Ac(a2-3)Gal(b1-4)GlcNAc
Procedure, shortened: as §1

[32] = biological target: Neu5Gc(a2-8)Neu5Gc(a2-3)Gal(b1-4)GlcNAc
Procedure, shortened: as §1

[33] = biological target: Neu5Gc(a2-8)Neu5Gc(a2-3)Gal(b1-4)GlcNAc(b1-3)Gal(b1-4)GlcNAc
Procedure, shortened: as §1

B1: FimA (Actinomyces oris) (protein)
chain: MHHHHHHSSGVDLGTENLYFQSNAETPNYGNIKTDATGSLVIHKHLTGGGKDIGTPTGTAQNADDKGPAVEGVVFTAYPITDINLKDPAGWDTISNLSRTGVPDSACANPAAPTLGAHQFGTPKVSPATTKEGLATITEMPVQAYLVCETTTPGDIVQKAKPFVVTIPHPNTAAGADGQWIYDVNVYPKNEAIDVDKTIQAQKLNGYGVGSLIKFPVESTAPTLDAKSFYKYFQLKDTLDERLSEVTATDVSLEGTPLQPTDYKVETKQQTVTVTFTAEGLKKIKAAPGKKVSAVFQGKVTKAGNGAITNRAQVISDTLYAEQPPTPETPPTDPENPPTSDEVISRWGDLSIKKVDTHQQGQTKAGLQGAQFQLYKAKNAYANTCSNEKEGAPIAINGQTTLTTDAQGAIDIKGLFISDSIDGADRDNQVNAMERCYVLVETKAPAGYVLPAGNGAATPVKVKAGEETTDNVTVENTKQSVPGLPLTG
glycan array binding signal (z-score) [1]: 0.21 | glycan array binding signal (z-score) [2]: -0.606 | glycan array binding signal (z-score) [3]: 0.39 | glycan array binding signal (z-score) [4]: 0.065 | glycan array binding signal (z-score) (Neu5Ac(a2-6)GalNAc): -0.296 | glycan array binding signal (z-score) [5]: -0.397 | glycan array binding signal (z-score) [6]: -0.147 | glycan array binding signal (z-score) [7]: 0.737 | glycan array binding signal (z-score) [8]: 1.38 | glycan array binding signal (z-score) (Neu5Ac(a2-8)Neu5Ac): 0.181 | glycan array binding signal (z-score) [9]: -0.825 | glycan array binding signal (z-score) [10]: -0.234 | glycan array binding signal (z-score) [11]: -0.282 | glycan array binding signal (z-score) [12]: 0.185 | glycan array binding signal (z-score) [13]: 0.136 | glycan array binding signal (z-score) [14]: -0.366 | glycan array binding signal (z-score) [15]: 0.69 | glycan array binding signal (z-score) [16]: 0.582 | glycan array binding signal (z-score) [17]: -0.63 | glycan array binding signal (z-score) [18]: -0.278 | glycan array binding signal (z-score) [19]: 1.45 | glycan array binding signal (z-score) [20]: 0.433 | glycan array binding signal (z-score) [21]: -0.342 | glycan array binding signal (z-score) (Neu5Ac(b2-6)GalNAc): -0.85 | glycan array binding signal (z-score) [22]: -0.549 | glycan array binding signal (z-score) [23]: -0.851 | glycan array binding signal (z-score) [24]: -0.577 | glycan array binding signal (z-score) [25]: -0.744 | glycan array binding signal (z-score) [26]: 0.672 | glycan array binding signal (z-score) (Neu5Gc(a2-3)Gal(b1-4)Glc): -0.301 | glycan array binding signal (z-score) [27]: -0.147 | glycan array binding signal (z-score) [28]: -0.219 | glycan array binding signal (z-score) [29]: -0.319 | glycan array binding signal (z-score) [30]: -0.016 | glycan array binding signal (z-score) (Neu5Gc(a2-6)GalNAc): 0.563 | glycan array binding signal (z-score) [31]: -0.306 | glycan array binding signal (z-score) [32]: -0.718 | glycan array binding signal (z-score) [33]: 0.322
